Measured values as given in the NIST ThermoML archive (doi:10.1016/j.fluid.2009.07.009).
Numbers after ± are expanded uncertainties.

Assay: relative permittivity at zero frequency (dimensionless)
Conditions: 303.15 K; 101.33 kPa; Liquid; Parallel plate capacitor

relative permittivity at zero frequency: 37.72 ± 0.23
SMILES: CC(=O)N(C)C [N,N-dimethylethanamide]
